From PubChem BioAssay AID540256 (National Center for Advancing Translational Sciences (NCATS), 2011)
In all, about 300,000 compounds went through this assay and about 3,700 (1.2%) were called active. The shares of active, inactive and inconclusive entries below differ from those in the screen. The call rests on the fitted dose curve; tested in HEK293 cells. Potencies beside an inconclusive call are fits to weak or partial responses and may not hold up.

Test: qHTS for Inhibitors of binding or entry into cells for Lassa Virus; further: nearly all actives have a fitted effect of over 50% in size
Conditions: Lassa virus pseudotype entry inhibition, cell reporter; series mostly up to 37.9 µM
Potency means the concentration at half of the fitted maximal effect.

SMILES	Potency
CNS(=O)(=O)c1ccc(Oc2ccc(S(=O)(=O)NC)cc2)cc1	inconclusive: 1 µM [inhibitor, full curve, poor fit]
COc1cc(OC)cc(-n2c(=O)c3ccccc3n(CC(=O)NCCc3ccc(OC)c(OC)c3)c2=O)c1	inactive
COc1ccc(NC(=O)CS(=O)(=O)c2ccccc2)cc1	inconclusive: 14.1 µM [activator, partial curve, poor fit]
CCC(=NCc1ccc2c(c1)OCO2)c1c(O)n(C)c(=O)n(C)c1=O	inconclusive: 29.1 µM [inhibitor, single point]
Cc1ccc(CNC(=O)C2CCN(S(=O)(=O)c3cnc[nH]3)CC2)cc1	inactive
CC(=O)c1ccc(NC(=S)NCCc2ccc(S(N)(=O)=O)cc2)cc1	inconclusive: 1.26 µM [inhibitor, single point]
Cn1cccc1-c1cc(C(=O)N/N=C/c2cccc(O)c2)[nH]n1	inconclusive: 5.62 µM [inhibitor, single point]
COc1ccc(-n2nnc3c(=O)n(Cc4ccccc4C)cnc32)cc1	inconclusive: 0.146 µM [inhibitor, full curve, poor fit]
COc1ccc(-c2nc(CNS(=O)(=O)c3ccc(F)cc3)cs2)cc1	inconclusive: 35.5 µM [inhibitor, single point]
Cc1ccc(C)c(N2CCN(C(=O)c3c4c(nc5ccccc35)C(=O)N(C3CCCCC3)C4)CC2)c1	inactive
COc1ccccc1N1CCN(C(=O)c2c3c(nc4ccccc24)C(=O)N(C2CCCCC2)C3)CC1	inactive
CC(CN1CCC(n2nccc2NC(=O)c2ccccc2Cl)CC1)c1ccccc1 (configuration not stated)	inconclusive: 3.16 µM [activator, single point]
O=C(Nc1ccccc1N1CCN(c2ccccc2)CC1)C12CC3CC(CC(C3)C1)C2	inconclusive: 8.2 µM [inhibitor, partial curve]
O=C(O)c1cc(-c2ccccc2Cl)n[nH]1	inconclusive: 18.3 µM [activator, single point]
C=CCN1C(=O)/C(=C/c2ccccc2)S/C1=N/c1nccs1	inconclusive: 25.9 µM [inhibitor, partial curve, poor fit]
O=C(OC(c1ccc(NS(=O)(=O)c2ccccc2)cc1)(C(F)(F)F)C(F)(F)F)c1ccccc1	inconclusive: 2.24 µM [inhibitor, partial curve, poor fit]
COCCNC(=O)/C(C#N)=C/c1c(N2CCN(c3ccccc3)CC2)nc2c(C)cccn2c1=O	inconclusive: 10 µM [inhibitor, partial curve, poor fit]
Cc1cccc(NC(=O)CSc2nc(C)c(Cc3ccccc3)c(=O)[nH]2)c1	inconclusive: 7.94 µM [inhibitor, partial curve, poor fit]
Cc1ccc(C)c(S(=O)(=O)Nc2ccc3sc(C)nc3c2)c1	inconclusive: 35.5 µM [inhibitor, single point]
O=C(O)c1sccc1SCc1ccc(Cl)c(Cl)c1	inactive
O=C1CC(c2ccccc2)Cc2nc(N3CCc4ccccc43)ncc21 (configuration not stated)	inconclusive: 1.83 µM [inhibitor, full curve]

Rewritten bar-delimited: part of the list above.
SMILES | Potency
Cn1cccc1-c1cc(C(=O)N/N=C/c2cccc(O)c2)[nH]n1 | inconclusive: 5.62 µM [inhibitor, single point]
COc1ccc(-n2nnc3c(=O)n(Cc4ccccc4C)cnc32)cc1 | inconclusive: 0.146 µM [inhibitor, full curve, poor fit]
COc1ccc(-c2nc(CNS(=O)(=O)c3ccc(F)cc3)cs2)cc1 | inconclusive: 35.5 µM [inhibitor, single point]
Cc1ccc(C)c(N2CCN(C(=O)c3c4c(nc5ccccc35)C(=O)N(C3CCCCC3)C4)CC2)c1 | inactive
COc1ccccc1N1CCN(C(=O)c2c3c(nc4ccccc24)C(=O)N(C2CCCCC2)C3)CC1 | inactive
CC(CN1CCC(n2nccc2NC(=O)c2ccccc2Cl)CC1)c1ccccc1 (configuration not stated) | inconclusive: 3.16 µM [activator, single point]
O=C(Nc1ccccc1N1CCN(c2ccccc2)CC1)C12CC3CC(CC(C3)C1)C2 | inconclusive: 8.2 µM [inhibitor, partial curve]
O=C(O)c1cc(-c2ccccc2Cl)n[nH]1 | inconclusive: 18.3 µM [activator, single point]
C=CCN1C(=O)/C(=C/c2ccccc2)S/C1=N/c1nccs1 | inconclusive: 25.9 µM [inhibitor, partial curve, poor fit]
O=C(OC(c1ccc(NS(=O)(=O)c2ccccc2)cc1)(C(F)(F)F)C(F)(F)F)c1ccccc1 | inconclusive: 2.24 µM [inhibitor, partial curve, poor fit]

(listing goes on)

SMILES	Potency
CN(CCOc1ccc(-c2ccn(S(=O)(=O)c3c(Cl)cccc3Cl)n2)cc1)c1ccccn1	inactive
CCN(C(=O)c1cn(C)c(=O)c2cc(OC)c(OC)cc12)c1cc(C)ccc1C	inconclusive: 35.5 µM [activator, single point]
CC(C)c1ccc(/C=N/NC(=O)c2ccc(-n3cnnn3)cc2)cc1	inconclusive: 10 µM [inhibitor, partial curve, poor fit]
CCc1ccc(-c2nc(SCC(=O)NCCOC)c(-c3ccc(C)cc3)[nH]2)cc1	inactive
O=C(Nc1cccc(O)c1)c1noc2c1CCCCC2	inconclusive: 16.4 µM [inhibitor, partial curve, poor fit]
CCOc1ccc(S(=O)(=O)N2CCCCC2)cc1NC(=O)CCc1ccc(OC)cc1	inconclusive: 0.794 µM [activator, single point]
COC(=O)c1ccc(Cl)c(NC(=O)CN2CCOCC2)c1	inconclusive: 35.5 µM [activator, single point]
Cc1c(C2N3CC4(C)CN2CC(C)(C3)C4=O)c2ccccc2n1C (configuration not stated)	inactive
COC(=O)c1ccc(OCC(O)CN(CCO)CC(O)Cn2ccc3ccccc32)cc1 (configuration not stated)	inconclusive: 0.562 µM [inhibitor, full curve, poor fit]
COc1ccc(NC(=O)N2CCN(c3nc(-c4cccc(OC)c4)cs3)CC2)cc1	inconclusive: 29.1 µM [inhibitor, single point]
O=S(=O)(Nc1ncccn1)c1cc(Cl)ccc1Cl	inconclusive: 1.41 µM [activator, full curve]
Cc1c(NS(=O)(=O)c2cc(C(=O)NCCN(C)C)ccc2Cl)c(=O)n(-c2ccccc2)n1C	inactive
Cc1ccc(C(=O)OCC(=O)NC2CC2)s1	inactive
CCOc1cc(/C=C(/C#N)c2nc3ccccc3[nH]2)ccc1OCc1ccc(C(=O)O)o1	inactive
O=C(c1ccc(Cl)c(S(=O)(=O)N2CCCCC2)c1)N1CCN(Cc2ccccc2)CC1	inconclusive: 25.1 µM [inhibitor, single point]
CC1(C)CC(=O)C(CC2C(=O)CC(C)(C)CC2=O)C(=O)C1	inactive
CC(=O)Nc1ccc(NC(=O)C(C)OC(=O)CCCOc2ccc(Cl)cc2C)cc1 (configuration not stated)	inconclusive: 2.82 µM [inhibitor, full curve, poor fit]
Cc1ccc(C(=O)c2sc(Nc3ccccc3)c(C#N)c2N)cc1	inconclusive: 16.4 µM [inhibitor, partial curve]
CC(C)(C)C1=CC(=O)C(=O)C(C(C)(C)C)=C1	inconclusive: 16.4 µM [inhibitor, partial curve]
CCS(=O)(=O)Nc1ccc(C2=NN(C(=O)c3ccco3)C(c3ccc(Cl)o3)C2)cc1 (configuration not stated)	inconclusive: 3.16 µM [inhibitor, full curve, poor fit]
Cc1cc(NCC(c2ccccc2)c2ccccc2)n2ncnc2n1	inconclusive: 7.08 µM [inhibitor, partial curve, poor fit]
